The values that follow come from publication PMC7155171, “Probing the Open Global Health Chemical Diversity Library for Multistage-Active Starting Points for Next-Generation Antimalarials” (ACS Infectious Diseases, 2020).

In all, about 68,000 compounds were measured (“% viability”: median about 1.1, lowest 2% from about 0.96 on). The entries are a selection whose mix differs from that of the whole data set. The numbers are fractions of the control, whatever unit the source prints.

This assay relates to P. falciparum (NF54) stage V gametocytes. Particulars: 72 h, 2 µM.
Turning to `CCS(=O)(=O)N1[CH]Cc2ccc(NC(=O)Nc3cccc(C#N)c3)cc21` [DDD01025929], the “% viability” value is reported as 1.253.
